From article PMC11024185
Results are given in words; binding and its absence hold for the method and conditions named. Binding seen in cells or lysates may run through a third protein. A yes stands for co-enrichment or nearness to the bait. Other partners may have been found. Sequences can lack the tags named with a protein.

Tests used:
[1] = target: T1, Ssf1-3xFLAG-3C-2xProteinA (S. cerevisiae) (UniProt P38789); assay: affinity purification with mass spectrometry; purification of pre-60S intermediates from a drs1 R569Q strain by tags on Drs1 R569Q (3x-Strep) and Ssf1 (2x-ProtA); Coomassie-stained 4-20% SDS-PAGE
T1 sequence: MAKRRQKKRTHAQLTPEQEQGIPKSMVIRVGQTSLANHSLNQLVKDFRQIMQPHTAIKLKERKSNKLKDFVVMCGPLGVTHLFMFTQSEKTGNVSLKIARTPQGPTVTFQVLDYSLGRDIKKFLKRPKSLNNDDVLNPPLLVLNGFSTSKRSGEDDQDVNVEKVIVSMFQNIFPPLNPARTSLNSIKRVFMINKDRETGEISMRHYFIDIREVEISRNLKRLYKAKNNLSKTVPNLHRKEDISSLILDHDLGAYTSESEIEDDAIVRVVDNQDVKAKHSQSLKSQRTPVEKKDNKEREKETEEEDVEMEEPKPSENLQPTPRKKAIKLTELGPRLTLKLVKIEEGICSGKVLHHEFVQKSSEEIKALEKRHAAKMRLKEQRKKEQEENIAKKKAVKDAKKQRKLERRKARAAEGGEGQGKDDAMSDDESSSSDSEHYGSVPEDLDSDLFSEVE

[2] = target: T2, Noc2-3xFLAG-3C-2xProteinA (S. cerevisiae) (UniProt P39744); assay: affinity purification with mass spectrometry; split-tag purification of pre-60S particles from SPB4-AID yeast without and with auxin (0.5 mM IAA, 45 min): IgG Sepharose on Noc2-2xProteinA, 3C cleavage, then Strep-Tactin on 2xStrep-Dbp10; buffers with 50 µM ADP-BeF3; Coomassie-stained 4-20% SDS-PAGE, bands named by molecular weight, ambiguous bands by mass spectrometry; auxin gave ~10-fold enrichment of the particle
T2 sequence: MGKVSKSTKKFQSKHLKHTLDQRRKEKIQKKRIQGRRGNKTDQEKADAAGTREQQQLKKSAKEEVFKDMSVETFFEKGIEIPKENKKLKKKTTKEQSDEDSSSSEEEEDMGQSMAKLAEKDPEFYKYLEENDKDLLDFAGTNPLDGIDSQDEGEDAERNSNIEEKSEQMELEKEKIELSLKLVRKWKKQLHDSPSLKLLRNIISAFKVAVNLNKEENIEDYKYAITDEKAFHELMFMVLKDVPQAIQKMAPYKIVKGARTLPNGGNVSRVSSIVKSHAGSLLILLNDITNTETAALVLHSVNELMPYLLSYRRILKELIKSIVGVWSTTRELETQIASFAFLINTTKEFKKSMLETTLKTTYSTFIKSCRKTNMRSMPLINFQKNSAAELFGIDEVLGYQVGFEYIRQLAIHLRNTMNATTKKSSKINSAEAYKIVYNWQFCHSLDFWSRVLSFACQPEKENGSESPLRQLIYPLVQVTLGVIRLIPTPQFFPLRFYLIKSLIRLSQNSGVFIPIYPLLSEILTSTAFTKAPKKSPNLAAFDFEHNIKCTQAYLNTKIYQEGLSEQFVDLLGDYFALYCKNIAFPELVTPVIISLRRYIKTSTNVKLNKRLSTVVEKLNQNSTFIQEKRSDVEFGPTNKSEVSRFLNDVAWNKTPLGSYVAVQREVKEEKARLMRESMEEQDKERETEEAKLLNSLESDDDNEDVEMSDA

[3] = target: T1, Ssf1-3xFLAG-3C-2xProteinA (S. cerevisiae); assay: affinity purification with mass spectrometry; split-tag purification of pre-60S particles from yeast overexpressing dbp10 R522V (β-estradiol, 1 h): IgG Sepharose on Ssf1-2xProteinA, 3C cleavage, then Strep-Tactin on Dbp10 R522V, bdNEDD8 protease elution; 50 mM Bis-Tris-Propane pH 8.0, 125 mM NaCl, 25 mM KCl, 10 mM MgCl2; Coomassie-stained 4-20% SDS-PAGE, bands named by molecular weight, ambiguous bands by mass spectrometry
[4] = target: T1, Ssf1-3xFLAG-3C-2xProteinA (S. cerevisiae); assay: affinity purification with mass spectrometry; split-tag purification of pre-60S particles from steady state DBP10 yeast: IgG Sepharose on Ssf1-2xProteinA, 3C cleavage, then Strep-Tactin on 2xStrep-Dbp10, desthiobiotin elution; buffers with 50 µM ADP-BeF3; Coomassie-stained 4-20% SDS-PAGE, bands named by molecular weight, ambiguous bands by mass spectrometry

Measured: binding

B1: Nsa2 (protein, UniProt P40078 1-261)
chain: MPQNDYIERHIKQHGKRLDHEERKRKREARESHKISERAQKLTGWKGKQFAKKRYAEKVSMRKKIKAHEQSKVKGSSKPLDTDGDALPTYLLDREQNNTAKAISSSIKQKRLEKADKFSVPLPKVRGISEEEMFKVIKTGKSRSKSWKRMITKHTFVGEGFTRRPVKMERIIRPSALRQKKANVTHPELGVTVFLPILAVKKNPQSPMYTQLGVLTKGTIIEVNVSELGMVTAGGKVVWGKYAQVTNEPDRDGCVNAVLLV
binds: all assays above

B2: Nop2 (protein, UniProt P40991 1-618)
chain: MGSRRHKNKQAAPPTLEEFQARKEKKANRKLEKGKRPSTTQGDEVSDRKKKKSKPFKKSRKEEEEVVEEDKDLPEVDLEELSKARKSLFDDEEDDDEAGLVDEELKDEFDLEQEYDYDEDEDNDAHPIFSDDDDEADLEELNAQNMEALSKKLDEEEAEEAEEAEMELVEAENMQPRADILPTEEQEEMMAQETPNLTSTRTRMIEIVKVLENFKTLGAEGRSRGEYVDRLLKDICEYFGYTPFLAEKLFNLFSPAEAMEFFEANEIARPITIRTNTLKTRRRDLAQTLVNRGVNLQPIGSWTKVGLQIFDSQVPIGATPEYLAGHYILQAASSFLPVIALDPHENERILDMAAAPGGKTTYISAMMKNTGCVFANDANKSRTKSLIANIHRLGCTNTIVCNYDAREFPKVIGGFDRILLDAPCSGTGVIGKDQSVKVSRTEKDFIQIPHLQKQLLLSAIDSVDCNSKHGGVIVYSTCSVAVEEDEAVIDYALRKRPNVKLVDTGLAIGKEAFTSYRGKKFHPSVKLARRYYPHTYNVDGFFVAKFQKIGPSSFDDNQASAKEKETAARKEALEEGIIHSDFATFEDEEDDKYIEKSVKNNLLKKGVNPKAKRPSNEK
binds: all assays above

B3: Nog1 (protein, UniProt Q02892 1-647)
chain: MQLSWKDIPTVAPANDLLDIVLNRTQRKTPTVIRPGFKITRIRAFYMRKVKYTGEGFVEKFEDILKGFPNINDVHPFHRDLMDTLYEKNHYKISLAAISRAKSLVEQVARDYVRLLKFGQSLFQCKQLKRAALGRMATIVKKLRDPLAYLEQVRQHIGRLPSIDPNTRTLLICGYPNVGKSSFLRCITKSDVDVQPYAFTTKSLYVGHFDYKYLRFQAIDTPGILDRPTEEMNNIEMQSIYAIAHLRSCVLYFMDLSEQCGFTIEAQVKLFHSIKPLFANKSVMVVINKTDIIRPEDLDEERAQLLESVKEVPGVEIMTSSCQLEENVMEVRNKACEKLLASRIENKLKSQSRINNVLNKIHVAQPQARDDVKRTPFIPESVKNLKKYDPEDPNRRKLARDIEAENGGAGVFNVNLKDKYLLEDDEWKNDIMPEILDGKNVYDFLDPEIAAKLQALEEEEEKLENEGFYNSDDEEEIYDGFEASEVDDIKEKAAWIRNRQKTMIAEARNRKSLKNKAIMPRSKLTKSFGKMEEHMSTLGHDMSALQDKQNRAARKNRYVERGSDVVFGDQDALTASTENGVKLRQTDRLLDGVADGSMRSKADRMAKMERRERNRHAKQGESDRHNAVSLSKHLFSGKRGVGKTDFR
binds: all assays above
